Reference: the supplement of paper PMC3334620
In all, about 33,000 sequences were measured (“E-score (-0.5 to 0.5)”: median about -0.016, highest 2% from about 0.3 on). The list shows a part of the results.

molecular target: T1, Yer184c (UniProt P39961); experiment: PBM E-score (8-mer binding enrichment) (E-score (-0.5 to 0.5)); higher = stronger / more preferred TF binding; settings: protein concentration: 100 nM; construct: GST-full length
T1 sequence: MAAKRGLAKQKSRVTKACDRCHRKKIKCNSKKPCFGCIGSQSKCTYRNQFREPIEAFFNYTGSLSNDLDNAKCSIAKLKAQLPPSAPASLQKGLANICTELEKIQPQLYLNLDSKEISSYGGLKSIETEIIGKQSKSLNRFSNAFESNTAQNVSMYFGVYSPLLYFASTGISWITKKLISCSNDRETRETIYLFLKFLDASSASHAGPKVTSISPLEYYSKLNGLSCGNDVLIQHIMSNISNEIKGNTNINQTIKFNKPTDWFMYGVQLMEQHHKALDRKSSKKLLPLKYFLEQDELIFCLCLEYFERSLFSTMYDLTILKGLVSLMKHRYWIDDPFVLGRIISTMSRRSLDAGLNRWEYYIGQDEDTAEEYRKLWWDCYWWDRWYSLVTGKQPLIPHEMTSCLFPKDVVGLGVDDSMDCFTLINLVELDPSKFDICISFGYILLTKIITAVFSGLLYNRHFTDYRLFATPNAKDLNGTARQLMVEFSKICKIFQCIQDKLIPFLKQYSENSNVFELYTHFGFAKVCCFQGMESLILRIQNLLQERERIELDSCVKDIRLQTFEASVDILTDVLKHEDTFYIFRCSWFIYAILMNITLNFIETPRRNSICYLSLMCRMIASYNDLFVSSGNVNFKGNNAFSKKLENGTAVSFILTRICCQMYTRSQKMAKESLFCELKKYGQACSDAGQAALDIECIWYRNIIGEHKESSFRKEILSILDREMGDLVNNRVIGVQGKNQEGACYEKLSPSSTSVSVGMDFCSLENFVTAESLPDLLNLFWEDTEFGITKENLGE
Method in brief: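 GST-tagged yeast TFs (full-length or DNA-binding domain) were made by PURExpress in vitro transcription/translation and applied at about 100-200 nM to universal all-10-mer Agilent arrays. The arrays were made double-stranded by primer extension, on fresh or once-stripped slides. Bound protein was detected with fluorescent anti-GST, and scans were normalised with masliner. Each ungapped eight-base word, pooled with its reverse complement, received an E-score (modified Wilcoxon-Mann-Whitney statistic) from the Universal PBM Analysis Suite.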

Sequence | PBM E-score
AATGTGGA | -0.0334
CATTCAGG | -0.18
ACCGATGC | 0.125
CAAGAGCG | -0.176
GTAGACAC | -0.00282
CGGTGTGA | 0.13
GAATGCGC | 0.16
ATGACTAA | -0.0122
CCTGGGGA | -0.391
CATGCGAG | -0.0852
GCTGAGCC | -0.0367
AGCTTCAG | -0.0447
AAGAAAGG | -0.0259
AGAAAATG | 0.184
ACAGGGAT | -0.193
ATCGAAGC | 0.0785
ACCAACCA | -0.147
CAGGGACC | -0.295
CGTCGTTC | 0.229
CAGGTAAA | 0.134
CACACCGA | 0.192
ACATAACT | -0.133
GGTTGACA | -0.00887
GATACTGA | -0.0608
GCTGCTAC | -0.139

Sequence | PBM E-score
CCATCTAG | -0.222
CGTTTACA | 0.0306
CCCATTAC | -0.229
GGGCCGAC | 0.132
ACTCGGCG | 0.325
CTTGCTAA | -0.00145
ACCGTATG | -0.0719
ACCAAGAT | 0.013
AGTGAAGG | -0.136
CCACCAAA | 0.0181
CCATGGGA | -0.211
AGCCCCAT | -0.257
CATGAGAA | 0.119
CCTGGGTA | -0.148
CTTCCGTC | 0.209
CCGGGGCA | -0.00537
CCATTCAC | -0.0255
AAAACCCT | -0.192
CTTTGGAC | 0.159
CAAGCCTA | -0.0384
ATTCTCGG | 0.345
CAAGGTCC | -0.0303
AGCTTTCG | 0.105
GCACAAGA | 0.00151
TCCCGAGA | 0.305

Sequence | PBM E-score
GTCACCAC | -0.124
ACCAACGA | 0.0181
GCGGGCTA | -0.04
ACGAGCAT | -0.278
CCGTACTA | 0.168
GATTACTA | 0.0673
AAACCCCG | 0.0829
CACTAGCG | -0.09
CCAGGGTA | -0.174
CCCACTCA | -0.298
CCTAGTTA | 0.0429
CATCGTAG | -0.234
ACGCTTAC | -0.222
GGCCATAC | -0.00371
ACGAGTCC | -0.0334
GGACCAAA | 0.116
CATATCAC | -0.0551
ATTGTAGC | 0.0678
AGGTATCA | -0.234
ATCTATCC | 0.194
ACGTTACG | 0.0294
TATCCCAA | -0.0284
ACGACACG | -0.121
AGACTTAG | -0.18
GTAACCCA | 0.0208

Sequence | PBM E-score
ACTAAGAA | 0.0409
AGGAACAA | 0.0767
TACATTGA | 0.176
TATGAGGA | -0.105
AGTTCGGC | 0.295
AATAGCGC | 0.0274
CTCTGAGC | -0.131
AAAGGACC | -6e-05
CTGGCCCC | -0.138
CTACTGGC | -0.297
AACACTCG | 0.0864
GGTCCACA | -0.151
ATGACCAA | 0.00989
CTCCAGCA | -0.321
CCGAACAC | 0.215
AAGTGTTC | -0.00384
CGGGAACC | 0.0784
AAGTATGA | 0.052
GTAGTCAA | 0.115
TCGTAAGA | 0.0508
GTGTAACA | -0.0685
AAGAGAAT | 0.0316
ATTGCTAC | -0.0688
GCCCCTAC | -0.288
AGTTAAAA | 0.176

Sequence | PBM E-score
GGATAGCC | 0.198
ACAAGGTA | 0.0323
GTATATAC | -0.0816
AAACTCCG | 0.319
ACCTTTAA | 0.138
TCGACGCA | -0.00982
CATTAAGC | 0.0322
CTGTCATC | 0.0383
GTCATGAA | 0.0972
AATGTGAT | -0.0713
CTCGTCCA | -0.0079
AAGATCGA | 0.166
AGGGTGTA | -0.152
AGGCTACT | -0.0871
ACGGTCGC | -0.197
GATTCACC | -0.105
GTCGACCA | -0.0393
AGCGCACC | -0.0934
AAATGAGG | -0.174
GCCTCGCC | -0.34
ATGTCGAC | 0.0646
GACCCCTC | -0.274
GACCACAC | -0.124
GCGCGCGC | 0.273
GGCCCTAC | -0.279

Sequence | PBM E-score
CCTTCTCA | -0.154
CTTTGTGA | 0.063
AGCTTTGA | 0.102
CGGAAGTC | 0.232
ACCCGGCC | 0.255
AAAGAGTA | -0.0516
CCTGAAAG | 0.0373
AGGCAACG | -0.106
GATTGGTA | 0.088
CCTCGAAG | -0.0114
ATAAAGTC | 0.102
AGGTTATA | -0.101
CCGTAGTA | 0.109
GGCTTCAA | -0.00541
ATACTGAT | 0.161
GCTGAACA | 0.0152
CAGGGTAC | -0.246
CAGCCGGC | 0.391
AACCCGAT | 0.0975
AGAAGGCT | -0.278
GGGAGTGA | -0.0149
CCTGACCC | -0.117
CAGCGCTA | 0.0165
TACGGTAA | 0.188
CTAACCAA | 0.0989

Looked up above.
PBM E-score, ATACTGAT reads 0.161
PBM E-score, CCTGAAAG reads 0.0373
PBM E-score, ACCCGGCC reads 0.255
PBM E-score, AGGCAACG reads -0.106
PBM E-score, GCTGAACA reads 0.0152
PBM E-score, CAGCGCTA reads 0.0165

(listing goes on)

Sequence | PBM E-score
AGCCGCCC | -0.0791
CTATACTC | -0.184
CTCGCGGC | 0.146
AATTCTTG | 0.125
AGTCGCAC | -0.334
AGTGAGTG | 0.038
CGATTCCC | -0.0539
ACAAAATA | 0.0279
CGTGTAGC | -0.157
CCGAACAG | 0.216
ACTCTAAC | 0.0815
GATGAATC | 0.0272
CCATAAAA | 0.13
ACAATATG | 0.133
ACATCACC | -0.124
AACGCCTG | -0.104
CACTTACG | 0.109
CTTGAACC | 0.0363
AATATATT | 0.38
TCACAGAA | -0.0101
GACAGCCA | -0.108
AACGACGC | 0.0135
